Assay results: US20140200142A1, “TREATMENT OF STORED TUBERS WITH AEROSOLS OF HIGHER ALCOHOLS” (1,4 Group, Inc., priority 2013, published 2014)

System: existing sprouts on post-dormant potatoes with peeps and sprouts extant
Test: Comparison of thermofogged sprout suppressing chemicals for "burn" of existing sprouts (Example IV)
Assay type: in vivo
Details: observation on treated potatoes
Procedure: Various sprout suppressing chemicals were compared for their ability to suppress existing sprouts on post-dormant potatoes with peeps and sprouts extant. […] Clove oil applied at a predetermined dosage gave a “burn” effectiveness of 46% of existing peeps while 1-nonanol at a dosage one-fourth as great gave a 50% “burn.” At a one-half dosage, 1-nonanol provided a 100% “burn” effectiveness within 24 hours after treatment. In the above table “Burn old” refers to the effect upon old sprouts, which included sprouts up to nine months old, these being generally more difficult to desiccate, while “burn new” refers to newly emerged sprouts and peeps, generally less than a month or so in existence.

Structure (SMILES) | Comments
CCCCCCCCCCCCO [Dodecanol] | Stringy, sticky liquid

Same assay, conditions: thermofogged chemical on potatoes

Structure (SMILES) | Smell
CCCCCCCCCO [1-Nonanol, 1-nonanol] | Moderate
CCCCCCCCO [1-Octanol, 1-octanol] | Pleasant, slight
CCCCCCCCCCO [1-Decanol, 1-decanol] | moderate
CCCCCOC(C)=O [AmylAcetate, reference compound] | Rotten banana
CCCCCCCCCCCCO [Dodecanol] | moderate
CCCCCCO [Hexanol] | Pleasant, fruity
